{
  "sequences": {"note": "The chains behind the UniProt entries cited, without tags or fusion partners.", "UniProt Q08945": "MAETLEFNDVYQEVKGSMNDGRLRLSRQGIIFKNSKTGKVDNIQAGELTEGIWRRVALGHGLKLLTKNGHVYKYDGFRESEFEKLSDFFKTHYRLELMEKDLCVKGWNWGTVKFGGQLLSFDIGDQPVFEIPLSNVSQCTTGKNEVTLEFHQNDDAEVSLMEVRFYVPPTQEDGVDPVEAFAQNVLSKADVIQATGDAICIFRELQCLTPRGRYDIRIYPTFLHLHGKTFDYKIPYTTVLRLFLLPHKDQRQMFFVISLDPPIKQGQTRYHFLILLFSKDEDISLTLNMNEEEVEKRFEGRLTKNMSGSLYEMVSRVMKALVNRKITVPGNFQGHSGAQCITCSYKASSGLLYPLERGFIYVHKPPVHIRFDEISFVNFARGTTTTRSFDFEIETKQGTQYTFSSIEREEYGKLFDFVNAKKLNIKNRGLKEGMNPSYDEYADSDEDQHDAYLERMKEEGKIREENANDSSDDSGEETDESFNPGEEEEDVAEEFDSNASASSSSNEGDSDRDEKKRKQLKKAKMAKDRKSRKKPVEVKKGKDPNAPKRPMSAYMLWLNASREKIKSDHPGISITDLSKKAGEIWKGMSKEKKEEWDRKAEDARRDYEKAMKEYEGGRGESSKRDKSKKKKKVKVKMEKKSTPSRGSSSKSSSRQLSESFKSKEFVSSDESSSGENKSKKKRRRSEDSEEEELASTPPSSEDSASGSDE", "UniProt Q13838": "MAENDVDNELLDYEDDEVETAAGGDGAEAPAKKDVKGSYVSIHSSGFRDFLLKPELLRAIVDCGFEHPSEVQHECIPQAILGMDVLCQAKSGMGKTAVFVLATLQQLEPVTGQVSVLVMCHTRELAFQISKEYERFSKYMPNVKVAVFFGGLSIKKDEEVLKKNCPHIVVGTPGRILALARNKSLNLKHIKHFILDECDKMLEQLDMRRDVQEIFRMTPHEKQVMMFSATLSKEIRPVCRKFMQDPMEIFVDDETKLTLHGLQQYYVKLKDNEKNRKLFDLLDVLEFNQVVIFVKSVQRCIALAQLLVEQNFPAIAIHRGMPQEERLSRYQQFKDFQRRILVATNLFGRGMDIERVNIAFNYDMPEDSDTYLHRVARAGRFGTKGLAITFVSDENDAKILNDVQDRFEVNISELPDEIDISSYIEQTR"},
  "source": "paper PMC2828547",
  "about": "“UIF, a New mRNA Export Adaptor that Works Together with REF/ALY, Requires FACT for Recruitment to mRNA” (Current Biology, 2009)",
  "target": "T1, GB1-6His-UIF (human) (UniProt Q96QD9)",
  "T1 sequence": "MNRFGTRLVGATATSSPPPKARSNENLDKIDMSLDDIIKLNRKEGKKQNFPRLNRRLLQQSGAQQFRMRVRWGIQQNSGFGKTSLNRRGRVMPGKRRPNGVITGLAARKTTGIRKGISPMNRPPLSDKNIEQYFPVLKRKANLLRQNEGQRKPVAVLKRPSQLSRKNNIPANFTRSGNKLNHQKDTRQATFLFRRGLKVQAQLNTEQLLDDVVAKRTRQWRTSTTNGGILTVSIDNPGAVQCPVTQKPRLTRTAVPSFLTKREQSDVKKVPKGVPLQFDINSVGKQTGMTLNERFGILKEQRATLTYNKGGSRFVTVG",
  "assay": "affinity purification with mass spectrometry; GB1-6His-UIF affinity chromatography with a control GB1 tag; retained proteins separated by SDS-PAGE and identified by mass spectrometry; only the target purified",
  "note": "These are yes or no findings as the source states them, for the method shown. In cells and extracts the contact can be indirect. Here binding means that the protein was enriched with, or labelled near, the bait; the list need not be complete. Where a sequence is shown, tags or fusion partners need not be part of it.",
  "data": [
    {"substance": "SSRP1 (endogenous) (from UniProt Q08945 1-709)", "values": [
      {"measurement": "binding", "result": "binds"}
    ]},
    {"substance": "UAP56 (endogenous, retained on GB1-6His-UIF) (from UniProt Q13838 1-428)", "values": [
      {"measurement": "binding", "result": "binds"}
    ]}
  ]
}
